Laboratory results as given in article doi:10.1101/736439.
Results are given in words; binding and its absence hold for the method and conditions named. Some binding calls cover weakened binding; strength is not graded here.

Experiments:
Assay in all cases: ITC
[1] = target: T1, Ectodomain of ERL1 (M26-R582) (Arabidopsis thaliana) (UniProt C0LGW6)
T1 sequence: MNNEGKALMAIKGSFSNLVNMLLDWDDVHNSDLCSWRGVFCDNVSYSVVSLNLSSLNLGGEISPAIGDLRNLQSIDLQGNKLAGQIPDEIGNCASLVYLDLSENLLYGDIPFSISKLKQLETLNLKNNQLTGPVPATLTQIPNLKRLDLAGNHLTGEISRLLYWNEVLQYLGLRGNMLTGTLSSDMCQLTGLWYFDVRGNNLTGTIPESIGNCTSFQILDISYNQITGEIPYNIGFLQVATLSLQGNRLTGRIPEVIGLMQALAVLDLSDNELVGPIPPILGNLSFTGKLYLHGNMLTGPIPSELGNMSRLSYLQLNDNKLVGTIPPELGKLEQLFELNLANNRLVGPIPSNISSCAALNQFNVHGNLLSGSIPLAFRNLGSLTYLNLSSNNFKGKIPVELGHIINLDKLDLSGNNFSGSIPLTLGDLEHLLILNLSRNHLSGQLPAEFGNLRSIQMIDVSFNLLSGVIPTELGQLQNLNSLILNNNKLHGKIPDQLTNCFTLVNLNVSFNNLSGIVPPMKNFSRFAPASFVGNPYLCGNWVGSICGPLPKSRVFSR

[2] = target: T2, Ectodomain of ER (E25-R580) (Arabidopsis thaliana) (UniProt Q42371)
T2 sequence: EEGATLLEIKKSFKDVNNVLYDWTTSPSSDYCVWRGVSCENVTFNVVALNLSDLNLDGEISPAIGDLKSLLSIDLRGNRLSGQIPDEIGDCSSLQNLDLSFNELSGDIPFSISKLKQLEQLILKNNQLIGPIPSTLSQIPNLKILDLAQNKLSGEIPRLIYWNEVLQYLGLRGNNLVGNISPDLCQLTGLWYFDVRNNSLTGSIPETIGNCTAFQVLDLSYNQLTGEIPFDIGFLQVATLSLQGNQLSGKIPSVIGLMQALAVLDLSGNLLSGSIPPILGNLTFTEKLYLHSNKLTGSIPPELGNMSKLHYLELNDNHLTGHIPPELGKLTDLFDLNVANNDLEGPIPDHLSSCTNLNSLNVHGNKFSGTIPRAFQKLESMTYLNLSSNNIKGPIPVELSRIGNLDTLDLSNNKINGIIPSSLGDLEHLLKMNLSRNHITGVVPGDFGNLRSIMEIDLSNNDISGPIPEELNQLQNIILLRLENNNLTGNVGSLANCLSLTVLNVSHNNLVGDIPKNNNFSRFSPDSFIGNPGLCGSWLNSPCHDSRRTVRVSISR

[3] = target: T3, Ectodomain of ERL2 (M28-R585) (Arabidopsis thaliana) (UniProt Q6XAT2)
T3 sequence: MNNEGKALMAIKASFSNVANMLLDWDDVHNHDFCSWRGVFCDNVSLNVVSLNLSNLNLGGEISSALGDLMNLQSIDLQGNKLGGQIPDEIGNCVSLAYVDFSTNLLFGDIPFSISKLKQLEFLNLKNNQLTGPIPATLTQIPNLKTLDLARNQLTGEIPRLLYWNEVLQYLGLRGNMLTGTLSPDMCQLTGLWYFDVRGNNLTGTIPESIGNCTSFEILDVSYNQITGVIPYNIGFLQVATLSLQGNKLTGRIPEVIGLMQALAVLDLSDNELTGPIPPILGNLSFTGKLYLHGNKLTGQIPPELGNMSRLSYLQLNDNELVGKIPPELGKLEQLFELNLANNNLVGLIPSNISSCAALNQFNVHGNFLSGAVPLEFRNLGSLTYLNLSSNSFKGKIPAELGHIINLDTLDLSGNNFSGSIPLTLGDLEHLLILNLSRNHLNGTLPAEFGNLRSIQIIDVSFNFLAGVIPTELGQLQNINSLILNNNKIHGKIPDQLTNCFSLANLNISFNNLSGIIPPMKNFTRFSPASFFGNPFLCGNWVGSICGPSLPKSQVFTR

Measured: binding

B1: Mature EPFL2 (MEPFL2) (peptide, UniProt Q9T068 53-128)
chain: GHIGSRPPRCERVRCRSCGHCEAIQVPTNPQTKLHSPLTTSSSSSSETIHLDYTRGDDSTNYKPMSWKCKCGNSIYNP
binds: all assays above
